{"source": "patent EP0099121A2", "about": "“Pharmaceutical compositions” (Bristol-Myers Company, priority 1982, dated 1984)", "system": "gastric erosions", "experiment": "HCl-induced gastric erosions in rats, pretreatment with compound alone or with pepstatin", "assay_type": "in vivo, Long Evans rats", "note": "For at least one compound, name, drawing or mass did not settle the structure."}
{"smiles": "CNC(=C[N+](=O)[O-])NCCSCc1ccc(CN(C)C)o1", "note": "[Ranitidine, ranitidine]", "values": [{"measurement": "enhancement of the inhibitory effect by pepstatin", "setting": "25, 50, 75 or 100 mg/kg plus pepstatin", "value": "No enhancement of the inhibitory effect"}, {"measurement": "formation of gastric erosions", "setting": "pretreatment with compound alone at the doses tested", "value": "decreased the formation of gastric erosions in a dose-related manner"}]}
